Measurements reported in PubChem BioAssay AID1224828 (NIAID, 2016)
Purpose: 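Find genes required for NF-kappaB p65 moving into the nucleus after LPS in mouse macrophages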 (primary screen). System: mouse RAW264.7 G9 macrophage reporter cells (GFP-p65, Tnf promoter-mCherry). Reagent: siRNA pool against mouse genes, 100 nM. Duration: 2 days siRNA transfection, then 40 min LPS before fixation. Challenge: LPS (Salmonella minnesota R595) at 10 ng/ml. Detection: 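Imaged p65 nuclear translocation ratio, normalised to the plate median, converted to robust z-scores and averaged across two replicates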. Reading the numbers: p65 translocation robust z-score: higher = more nuclear NF-kappaB p65 after LPS than the plate median; nuclear/cytoplasmic p65 ratio: higher = more nuclear NF-kappaB p65. Active means: 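Called active when z exceeds 3.3 or falls under -1.56 (median of Tlr4 controls), giving activity score of at least 50; no calls for control wells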. Calls: active = hit (p65 shift raised or lowered); inactive = no clear change.
In all, the deposit lists about 17,000 reagents; shown is an unselected part. 762 of all reagents (4.5%) were called active. 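Active calls include both raised and lowered p65 entry, mostly lowered; wells with fewer than 50 cells lack a z-score.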 Raw values vary from plate to plate and are shown uncorrected. Entries without a mark were called inactive. No sequences are given here.

| target gene | PubChem SID | p65 translocation robust z-score | nuclear/cytoplasmic p65 ratio, rep 1 | nuclear/cytoplasmic p65 ratio, rep 2 | low cell count flag |
| --- | --- | --- | --- | --- | --- |
| Arhgap6 (Rho GTPase activating protein 6) | SID315465505 | 0.14 | 1.54 | 1.73 | enough cells to score |
| Or4c12b (olfactory receptor family 4 subfamily C member 12B) | SID315480592 | -0.46 | 1.57 | 1.33 | enough cells to score |
| Qprt (quinolinate phosphoribosyltransferase) | SID315472985 | 0.62 | 1.59 | 1.29 | enough cells to score |
| H2-M10.6 (histocompatibility 2, M region locus 10.6) | SID315481879 | 2.98 | 2.05 | 2.02 | enough cells to score |
| Sypl2 (synaptophysin like 2) | SID315467915 | 1.97 | 1.99 | 1.86 | enough cells to score |
| Rcan1 (regulator of calcineurin 1) | SID315471298 | -2.24 (active) | 1.27 | 1.08 | enough cells to score |
| Sntg1 (syntrophin, gamma 1) | SID315474185 | 0.5 | 1.54 | 1.29 | enough cells to score |
| Armc1 (armadillo repeat containing 1) | SID315474921 | 0.17 | 1.69 | 1.6 | enough cells to score |
| Dusp13b (dual specificity phosphatase 13B) | SID315470601 | -1.67 (active) | 1.26 | 1.16 | enough cells to score |
| Ap5m1 (adaptor-related protein complex 5, mu 1 subunit) | SID315474959 | – | 1.12 | 1.14 | fewer than 50 cells per well; well left out of scoring |
| Hus1 (HUS1 checkpoint clamp component) | SID315467354 | -1.12 | 1.2 | 1.25 | enough cells to score |
| Plcg2 (phospholipase C, gamma 2) | SID315479198 | -0.47 | 1.48 | 1.3 | enough cells to score |
| Nfe2l1 (nuclear factor, erythroid derived 2,-like 1) | SID315468146 | -0.56 | 1.3 | 1.34 | enough cells to score |
| Wnt9b (WNT family member 9B) | SID315470040 | -0.61 | 1.52 | 1.33 | enough cells to score |
| Pus7 (pseudouridylate synthase 7) | SID315475602 | -1.32 | 1.27 | 1.34 | enough cells to score |
| Epdr1 (ependymin related 1) | SID315476068 | -2.08 (active) | 1.16 | 0.993 | enough cells to score |
| Epdr1 (ependymin related 1) | SID315476480 | 0.44 | 1.67 | 1.57 | enough cells to score |
| Or7a40 (olfactory receptor family 7 subfamily A member 40) | SID315468303 | -0.01 | 1.54 | 1.56 | enough cells to score |
| Tesmin (testis expressed metallothionein like) | SID315468020 | 0.69 | 1.91 | 1.69 | enough cells to score |
| Mboat2 (membrane bound O-acyltransferase domain containing 2) | SID315472904 | – | 1.21 | 1.5 | fewer than 50 cells per well; well left out of scoring |
| Erg (ETS transcription factor) | SID315466555 | -0.88 | 1.29 | 1.3 | enough cells to score |
| Pla2g2c (phospholipase A2, group IIC) | SID315468562 | 0.9 | 1.52 | 1.32 | enough cells to score |
| Atp6v1e2 (ATPase, H+ transporting, lysosomal V1 subunit E2) | SID315475057 | 0.43 | 1.58 | 1.66 | enough cells to score |
| Wdr31 (WD repeat domain 31) | SID315474223 | 0.6 | 1.45 | 1.36 | enough cells to score |
| Or52k2 (olfactory receptor family 52 subfamily K member 2) | SID315480700 | – | 1.45 | 1.37 | fewer than 50 cells per well; well left out of scoring |
| Or8b12c (olfactory receptor family 8 subfamily B member 12C) | SID315480512 | -0.48 | 1.38 | 1.25 | enough cells to score |
| Kcna7 | SID315467564 | 0.96 | 1.63 | 1.48 | enough cells to score |
| Gpc2 (glypican 2 cerebroglycan) | SID315474389 | -0.1 | 1.8 | 1.37 | enough cells to score |
| Or4g7 (olfactory receptor family 4 subfamily G member 7) | SID315480080 | -0.73 | 1.52 | 1.31 | enough cells to score |
| Ear4 (eosinophil-associated, ribonuclease A family, member 4) | SID315471120 | – | 1.28 | 1.04 | fewer than 50 cells per well; well left out of scoring |
| C530043K16Rik (RIKEN cDNA C530043K16 gene) | SID315481380 | 0.62 | 1.56 | 1.57 | enough cells to score |
| Tas2r131 (taste receptor, type 2, member 131) | SID315481868 | 0.62 | 1.52 | 1.69 | enough cells to score |
| Vangl1 (VANGL planar cell polarity 1) | SID315478725 | – | 1.24 | 1.04 | fewer than 50 cells per well; well left out of scoring |
| Gzmc (granzyme C) | SID315467091 | -2.11 (active) | 1.34 | 1.26 | enough cells to score |
| Gata6 (GATA binding protein 6) | SID315466841 | -1.98 (active) | 1.25 | 1.14 | enough cells to score |
| Cryba2 (crystallin, beta A2) | SID315466141 | -1.51 | 1.19 | 1.25 | enough cells to score |
| Or2t26 (olfactory receptor family 2 subfamily T member 26) | SID315480508 | 0.94 | 1.6 | 1.68 | enough cells to score |
| Hacd4 (3-hydroxyacyl-CoA dehydratase 4) | SID315472634 | 1.7 | 1.57 | 1.7 | enough cells to score |
| Itih5 (inter-alpha-trypsin inhibitor, heavy chain 5) | SID315477592 | 0.3 | 1.65 | 1.42 | enough cells to score |
| Rbm41 (RNA binding motif protein 41) | SID315479325 | -0.2 | 1.57 | 1.49 | enough cells to score |
| Pomgnt2 | SID315477936 | 1.24 | 1.76 | 2 | enough cells to score |
| Nags (N-acetylglutamate synthase) | SID315478092 | -1.28 | 1.58 | 1.2 | enough cells to score |
| Pdk1 (pyruvate dehydrogenase kinase, isoenzyme 1) | SID315478618 | – | 1.8 | 1.28 | fewer than 50 cells per well; well left out of scoring |

Reprinted from above for reference:
| target gene | PubChem SID | p65 translocation robust z-score | nuclear/cytoplasmic p65 ratio, rep 1 | nuclear/cytoplasmic p65 ratio, rep 2 | low cell count flag |
| --- | --- | --- | --- | --- | --- |
| Ap5m1 (adaptor-related protein complex 5, mu 1 subunit) | SID315474959 | – | 1.12 | 1.14 | fewer than 50 cells per well; well left out of scoring |
| Hus1 (HUS1 checkpoint clamp component) | SID315467354 | -1.12 | 1.2 | 1.25 | enough cells to score |
| Plcg2 (phospholipase C, gamma 2) | SID315479198 | -0.47 | 1.48 | 1.3 | enough cells to score |
| Nfe2l1 (nuclear factor, erythroid derived 2,-like 1) | SID315468146 | -0.56 | 1.3 | 1.34 | enough cells to score |
| Wnt9b (WNT family member 9B) | SID315470040 | -0.61 | 1.52 | 1.33 | enough cells to score |
| Pus7 (pseudouridylate synthase 7) | SID315475602 | -1.32 | 1.27 | 1.34 | enough cells to score |
| Epdr1 (ependymin related 1) | SID315476068 | -2.08 (active) | 1.16 | 0.993 | enough cells to score |
| Epdr1 (ependymin related 1) | SID315476480 | 0.44 | 1.67 | 1.57 | enough cells to score |
| Or7a40 (olfactory receptor family 7 subfamily A member 40) | SID315468303 | -0.01 | 1.54 | 1.56 | enough cells to score |
| Tesmin (testis expressed metallothionein like) | SID315468020 | 0.69 | 1.91 | 1.69 | enough cells to score |

Next reagents follow.
| target gene | PubChem SID | p65 translocation robust z-score | nuclear/cytoplasmic p65 ratio, rep 1 | nuclear/cytoplasmic p65 ratio, rep 2 | low cell count flag |
| --- | --- | --- | --- | --- | --- |
| Hao1 (hydroxyacid oxidase 1, liver) | SID315467142 | 1.72 | 1.98 | 1.72 | enough cells to score |
| Aifm2 (apoptosis-inducing factor, mitochondrion-associated 2) | SID315474224 | -0.55 | 1.5 | 1.57 | enough cells to score |
| Irf2bp1 (interferon regulatory factor 2 binding protein 1) | SID315480967 | -1.82 (active) | 1.29 | 1.19 | enough cells to score |
| Vmn1r192 (vomeronasal 1 receptor 192) | SID315479914 | -0.9 | 1.29 | 1.13 | enough cells to score |
| Immp1l | SID315472503 | -0.64 | 1.46 | 1.35 | enough cells to score |
| Nos1 (nitric oxide synthase 1, neuronal) | SID315468207 | 0.54 | 1.59 | 1.42 | enough cells to score |
| Fhad1 (forkhead-associated phosphopeptide binding domain 1) | SID315481564 | -0.08 | 1.59 | 1.5 | enough cells to score |
| Gsk3b (glycogen synthase kinase 3 beta) | SID315471626 | 1.38 | 1.84 | 1.62 | enough cells to score |
| Cnot6 (CCR4-NOT transcription complex, subunit 6) | SID315476451 | – | 1.1 | 1.05 | fewer than 50 cells per well; well left out of scoring |
| Zfp420 (zinc finger protein 420) | SID315479046 | -0.1 | 1.51 | 1.57 | enough cells to score |
| Lax1 (lymphocyte transmembrane adaptor 1) | SID315479523 | -0.47 | 1.51 | 1.21 | enough cells to score |
| Or5b113 (olfactory receptor family 5 subfamily B member 113) | SID315480338 | 0.38 | 1.7 | 1.44 | enough cells to score |
| Pgm1 (phosphoglucomutase 1) | SID315474478 | -0.08 | 1.4 | 1.26 | enough cells to score |
| Tmem198b (transmembrane protein 198b) | SID315474786 | 0.31 | 1.53 | 1.54 | enough cells to score |
| Pdk3 (pyruvate dehydrogenase kinase, isoenzyme 3) | SID315479315 | -1.39 | 1.46 | 1.21 | enough cells to score |
| Nat10 (N-acetyltransferase 10) | SID315476156 | 1.26 | 1.8 | 1.87 | enough cells to score |
| Mtrr | SID315477622 | 1.05 | 1.53 | 1.52 | enough cells to score |
| Abca7 (ATP-binding cassette, sub-family A member 7) | SID315470612 | -1.08 | 1.42 | 1.54 | enough cells to score |
| Esr1 (estrogen receptor 1 (alpha)) | SID315466565 | -0.47 | 1.34 | 1.36 | enough cells to score |
| Btg2 (BTG anti-proliferation factor 2) | SID315465680 | -0.02 | 1.65 | 1.57 | enough cells to score |
| Or51a25 (olfactory receptor family 51 subfamily A member 25) | SID315480710 | – | 1.19 | 1.2 | fewer than 50 cells per well; well left out of scoring |
| Zeb2 (zinc finger E-box binding homeobox 2) | SID315470341 | -1.25 | 1.38 | 1.29 | enough cells to score |
| Hhat (hedgehog acyltransferase) | SID315478532 | 1.42 | 1.45 | 1.39 | enough cells to score |
| Kics2 (KICSTOR subunit 2) | SID315480938 | 0.54 | 1.5 | 1.6 | enough cells to score |
| Or10d1 (olfactory receptor family 10 subfamily D member 1) | SID315480177 | -0.17 | 1.33 | 1.22 | enough cells to score |
| Dlat (dihydrolipoamide S-acetyltransferase) | SID315479244 | – | 1.2 | 1.09 | fewer than 50 cells per well; well left out of scoring |
| Sla (src-like adaptor) | SID315469267 | -0.19 | 1.55 | 1.5 | enough cells to score |
| Esrra (estrogen related receptor, alpha) | SID315470363 | -0.97 | 1.3 | 1.28 | enough cells to score |
| Pcnx3 (pecanex homolog 3) | SID315476440 | – | 1.25 | 1.07 | fewer than 50 cells per well; well left out of scoring |
| Rab31 (RAB31, member RAS oncogene family) | SID315476549 | 1.01 | 1.69 | 1.84 | enough cells to score |
| Slc7a10 | SID315471130 | -0.5 | 1.13 | 1.17 | enough cells to score |
| Dhdds (dehydrodolichyl diphosphate synthase) | SID315473013 | 2.16 | 2.17 | 1.58 | enough cells to score |
